The values are deposited in ChEMBL (CHEMBL3988442, “University of Dundee, Small-Polar-MMV Screening Library” (2021)).

A: 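Whole-cell assay for inhibitors of Mycobacterium tuberculosis growth, labelled Cornell in the record; the read-out is not stated. The concentration is filed as 10 mM, unlikely as a test dose, so the dose is not known. The record gives no direction; compounds strong in two other growth screens of this library score well above the rest, so higher reads as stronger inhibition. About 53,000 compounds were tested under these conditions; 1.7% (about 900) showed 50% or more at least once.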
B: 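Assay on Mycobacterium tuberculosis, filed only as a heat shock assay from Cornell; the read-out is not stated. The concentration is filed as 10 mM, unlikely as a test dose, so the dose is not known. Higher reads as stronger inhibition (inferred: compounds with an IC50 in retests scored well above the rest). About 69,000 compounds were tested under these conditions; 1.4% (about 930) showed 50% or more at least once.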

Each number is a percent effect as filed. The record does not define 0% and 100%; most values in the screen are far below 50% and negative numbers occur (in some assays of this library far below -100). Compounds were drawn at random from those tested, without regard to their results. A dash means the value is not listed here; it may have been measured.

Compound	A	B
CS(=O)(=O)N1CCCCCC1C1CCN(c2ncccn2)CC1 (centres unmarked)	-	3.899%
Cn1cc(C#N)cc1C(=O)N1CCC2(CCCN(CC3CCC3)C2=O)C1 (centres unmarked)	3.529%	6.543%
O=C(O)C(F)(F)F.O=C(O)C(F)(F)F.[H][C@@]12CCN(Cc3ccoc3)C[C@@]1([H])[C@H](C(=O)NCc1ccccn1)CCO2	16.41%	8.703%
O=C(O)C(F)(F)F.O=C(O)C(F)(F)F.O=C1N(c2ccsc2)CCC12CCCN(Cc1cccnc1)C2 (centres unmarked)	-7.382%	-9.673%
COCc1nnc(-c2cccc(C(=O)N(C(C)C)C3CCC3)c2)o1	11.68%	-14.09%
OC(COCc1ccccc1)CSc1nnc(C2CC2)n1C1CC1 (centres unmarked)	12.57%	3.244%
CC(Nc1cnn(C)c(=O)c1Cl)c1ccc(F)cc1 (centres unmarked)	19.81%	-18%
NC(=O)C1(c2cnccn2)CCCN1Cc1cccc(Cl)c1 (centres unmarked)	4.427%	-12.36%
COCCN1CCN(S(=O)(=O)C2CC2)Cc2ccc(C)nc21.O=C(O)C(F)(F)F	21.92%	-15.84%
O=C(c1cocn1)N1CCC[C@]2(C[C@@H](OCC3CC3)CO2)C1	25.53%	1.051%
O=C(N[C@@H]1CCNC[C@H]1O)c1ccc(F)c(Cl)c1	-	-7.059%
Cn1ccc(C(=O)N2CCCC(n3cncn3)C2)cc1=O (centres unmarked)	-	-21.76%
Cc1cc(CN(C)C(=O)c2ccc(Cl)c(N3CCCC3=O)c2)no1	-	-23.4%
CCSc1ncc(-c2cc(C3CC3)nc(N)c2C#N)cn1	18.52%	9.334%
O=C(O)C(F)(F)F.[H][C@@]12C[C@H](C(=O)Nc3ccccc3)[C@@]([H])(CN(CCC(C)C)C1)O2	17.84%	-19.48%
CCOCC1CN(S(C)(=O)=O)Cc2cnn(CC3CCOCC3)c21.O=C(O)C(F)(F)F (centres unmarked)	6.558%	-1.488%
CC(C)C1CN(Cc2nccn2C(C)C)CCC(=O)N1CC1CC1 (centres unmarked)	-7.986%	-22.34%
Cl.O=C(O)CN1CCC(C(F)(F)F)CC1	11.73%	11.41%
O=C(c1ccccn1)C1CCCN(c2nccc(CCC(F)(F)F)n2)C1 (centres unmarked)	-28.51%	-40.24%
CC(C)c1nc(COc2cccc3c2NC(=O)CO3)cs1	-13.52%	-13.02%
CNc1ncc(-c2ccnn2C2CCN(C(C)=O)CC2)cn1	0.6629%	-12.95%
CCN(CC)S(=O)(=O)N1CCC(c2c(C(N)=O)sc3ccccc23)C1 (centres unmarked)	8.031%	-6.77%
CCc1ccc(NC(=O)CC2Cn3ncnc3NC2=O)cc1 (centres unmarked)	-	-0.7426%
CCC(CC)NCC(C)Oc1cccnc1 (centres unmarked)	-3.65%	-0.3523%
O=C(NCc1cccc(N2CC=CC2)c1)NCC(F)(F)F	23.19%	20.04%
O=C(c1c(F)cc(Br)cc1F)N1CCc2cnccc21	12.79%	-13.44%
Cc1ccccc1CN(Cc1ccc(S(C)(=O)=O)cc1)CC(C)C	23.29%	-27.38%
Cc1nnc(CN2C[C@H](NC(=O)CC3CCCC3)[C@@H](C3CC3)C2)s1	-13.05%	9.1%
CN(Cc1cnn(C)c1)C(=O)NCc1nnc2n1CCC2	18.98%	17.18%
O=S1(=O)CCN(CCCc2ccc(Cl)cc2)CC1	41.28%	-18.1%
Cc1ccc(C(=O)N(CCC#N)Cc2ccccn2)cc1C	6.618%	-29.09%
CCNC(=O)C1CCN(Cc2csc(-c3ccc(C)o3)n2)CC1	-	5.686%
CCc1nn(C)c2[nH]nc(NC(=O)c3ccccc3COC)c12	10.13%	-24.87%
CC(C)(C)c1ncc(CNc2ccccc2SCCC(N)=O)s1	-7.394%	-1.357%
Cc1ccc(N2CCN(C(=O)CCc3n[nH]c(C)n3)CC2=O)cc1	6.213%	8.431%
Cc1cc(C)n(CC2CCCN2C(=O)Cc2c(C)nc(C)[nH]c2=O)n1 (centres unmarked)	-	-3.041%
Cc1noc(C)c1CCCNC(=O)Nc1ccc2c(c1)CC(=O)N2	-	-13.35%
C[C@]1(O)CCN(Cc2ncccc2F)C[C@@H]1Oc1ccccc1	3.831%	0.8994%
[H][C@]12CC[C@]([H])(CN(Cc3ccccn3)C1)N(Cc1snnc1C)C2	10.55%	-2.005%
Cc1ccc2c(c1)c(Sc1ccccc1)c(CC(=O)O)n2C	27.24%	-30.26%
c1ccc(CCc2n[nH]c(C3CCOC3)n2)cc1 (centres unmarked)	10.76%	-4.562%
O=C(O)C(F)(F)F.[H][C@@]12C[C@H](c3nc(C)no3)CN(Cc3ccc(F)cc3)[C@]1([H])CCO2	52.79%	-6%
[H][C@]12CN(CCN3CCCC3=O)CC[C@@]1(O)CCN(c1ncccn1)C2	-17.58%	-23.04%
Cc1nn2c(N3CCC(O)C3)cc(-c3ccccc3)nc2c1C (centres unmarked)	16.78%	9.783%
[H][C@@]12CCN(C(N)=O)C[C@]1([H])[C@@H](CNC(=O)c1ccnnc1)OC2	-22.03%	-0.7451%
Cc1nc(C)n(CC2CN(Cc3nc4ccccc4n3C)CCO2)n1 (centres unmarked)	-16.48%	-23.96%
CS(=O)(=O)NC1CCN(Cc2coc(-c3ccc(Cl)cc3)n2)CC1	-	-1.693%
OCC1CCCN1c1cc(N2CCC(OC3CCCC3)CC2)ncn1 (centres unmarked)	-	105.5%
CCNC(=O)C1(Cc2cc(-c3ccc(C)cc3)no2)CCCN(C)C1 (centres unmarked)	10.93%	-3.304%
CC(=O)N1CC(C(=O)Nc2cccc(OC(F)F)c2)C1	-5.747%	7.9%
COc1ccc(F)cc1CSCC(=O)N(C)C1CC1	7.573%	-21.97%
O=C(CSC1CCc2ccccc2NC1=O)NCc1cccs1 (centres unmarked)	-0.7102%	8.574%
CC(C)Oc1cccc(CN(C)C(=O)Cc2ccon2)c1	-20.5%	-11.51%
CC(C)n1ccc2ccc(C(=O)NC3CN4CCC3CC4)cc21 (centres unmarked)	-59.34%	5.998%
[H][C@@]12CCN(c3ncccn3)C[C@]1(C(=O)NCCc1ccccn1)CCO2	20.44%	-5.799%
O=c1[nH]cnc2c1CCN(S(=O)(=O)c1ccc(Cl)cc1)C2	16.91%	7.173%
Cc1cc(N(C)C)nc(C2(C)CCCNC2)n1 (centres unmarked)	-30.33%	-20.75%
Cc1ccc(C(=O)Nc2cn[nH]c2)cn1	-	2.153%
COCC(=O)N1CCCC(COc2ccccc2C)C1 (centres unmarked)	19.17%	-10.64%
CCOc1ccc(C(=O)Nc2c(C)nc3scc(C)n3c2=O)cc1	8.331%	0.272%
COc1ccc(CC(=O)N2CCN(Cc3ccco3)C[C@@H]2C)cc1OC	-3.659%	-12.36%
COc1ncccc1-c1nc(-c2ccccn2)nn1C1CCS(=O)(=O)C1 (centres unmarked)	21.19%	13.22%
Cc1cc(CNCC2CCCN(C(=O)OC(C)(C)C)C2)no1 (centres unmarked)	29.32%	-6.181%
CCn1c(CN(C)C(=O)c2ccc(N(C)C)nc2)nc2ccccc21	-	23.81%
Clc1ccc(C2(NCc3noc(C4CC4)n3)CCC2)cc1	-	22.97%
c1ccc(-c2noc3c2CN(CC2CC2)CC3)cc1	14.6%	27.97%
CCCc1cc(C(=O)N2CCC3(CCCN(CCOC)C3=O)C2)cs1 (centres unmarked)	0.6589%	-11.68%
O=C(c1ccccn1)N1CC(S(=O)(=O)c2ccc(Cl)cc2)C1	10.6%	-2.107%
Cc1ccc(N2CCC3(CCN(C(=O)c4ccoc4)CC3)CC2)nn1.O=C(O)C(F)(F)F	-	-13.67%
CN(C)S(=O)(=O)N1CCC2(CCCN(Cc3ccc(F)cc3)C2=O)C1 (centres unmarked)	16.58%	10.01%
CN(C)C(=O)Cn1cc(C(=O)NCCc2ccc(C(F)(F)F)cc2)nn1	-	-6.887%
Cc1nc2cc(C(=O)N3C[C@@H](C(=O)O)[C@H](c4ccncc4)C3)ccc2[nH]1	-33.94%	-17.38%
CCCc1noc(CN2CCN(CCO)CC2)n1	-	-22.37%
COc1cccc(C(C(=O)O)N(C)Cc2ccc(C)o2)c1 (centres unmarked)	-	10.01%
COc1ccc(COCC(=O)NC2CCc3nc(C)cn3C2)cc1 (centres unmarked)	14.44%	-19.46%
CN1CCN(C(=O)c2ccccc2)CC(Cc2cc(N(C)C)ncn2)C1 (centres unmarked)	13.51%	-9.862%
CN(C)CC1CN(c2ncnc3ccsc23)CCO1 (centres unmarked)	9.039%	-19.03%
Cc1cc(C[C@@H]2COC[C@@H]2NC(=O)CN2CCCC2)on1	-34.02%	-1.833%
Cc1c(C(=O)NCC2CCCO2)nnn1-c1cccc2c1CCN(C)C2 (centres unmarked)	-9.196%	-16.32%
O=C(O)c1ccnc(-c2ccnc(COc3ccc(Cl)cc3)n2)c1	23.77%	-10.88%
O=C(c1ccc[nH]1)N1CCc2c(cccc2S(=O)(=O)N2CCOCC2)C1	-4.365%	-13.01%
O=C(CCc1ccco1)Nc1cccc(S(=O)(=O)C(F)F)c1	40.43%	70%

Once more, the final 8:

Compound,A,B
COc1ccc(COCC(=O)NC2CCc3nc(C)cn3C2)cc1 (centres unmarked),14.44%,-19.46%
CN1CCN(C(=O)c2ccccc2)CC(Cc2cc(N(C)C)ncn2)C1 (centres unmarked),13.51%,-9.862%
CN(C)CC1CN(c2ncnc3ccsc23)CCO1 (centres unmarked),9.039%,-19.03%
Cc1cc(C[C@@H]2COC[C@@H]2NC(=O)CN2CCCC2)on1,-34.02%,-1.833%
Cc1c(C(=O)NCC2CCCO2)nnn1-c1cccc2c1CCN(C)C2 (centres unmarked),-9.196%,-16.32%
O=C(O)c1ccnc(-c2ccnc(COc3ccc(Cl)cc3)n2)c1,23.77%,-10.88%
O=C(c1ccc[nH]1)N1CCc2c(cccc2S(=O)(=O)N2CCOCC2)C1,-4.365%,-13.01%
O=C(CCc1ccco1)Nc1cccc(S(=O)(=O)C(F)F)c1,40.43%,70%